This note sets out measurements from article doi:10.1101/2023.06.15.544950.

Sequences of proteins named here, by UniProt entry; tags and fusion partners are left off. Residues count along the entry.
UniProt P97798, residues 37-1136: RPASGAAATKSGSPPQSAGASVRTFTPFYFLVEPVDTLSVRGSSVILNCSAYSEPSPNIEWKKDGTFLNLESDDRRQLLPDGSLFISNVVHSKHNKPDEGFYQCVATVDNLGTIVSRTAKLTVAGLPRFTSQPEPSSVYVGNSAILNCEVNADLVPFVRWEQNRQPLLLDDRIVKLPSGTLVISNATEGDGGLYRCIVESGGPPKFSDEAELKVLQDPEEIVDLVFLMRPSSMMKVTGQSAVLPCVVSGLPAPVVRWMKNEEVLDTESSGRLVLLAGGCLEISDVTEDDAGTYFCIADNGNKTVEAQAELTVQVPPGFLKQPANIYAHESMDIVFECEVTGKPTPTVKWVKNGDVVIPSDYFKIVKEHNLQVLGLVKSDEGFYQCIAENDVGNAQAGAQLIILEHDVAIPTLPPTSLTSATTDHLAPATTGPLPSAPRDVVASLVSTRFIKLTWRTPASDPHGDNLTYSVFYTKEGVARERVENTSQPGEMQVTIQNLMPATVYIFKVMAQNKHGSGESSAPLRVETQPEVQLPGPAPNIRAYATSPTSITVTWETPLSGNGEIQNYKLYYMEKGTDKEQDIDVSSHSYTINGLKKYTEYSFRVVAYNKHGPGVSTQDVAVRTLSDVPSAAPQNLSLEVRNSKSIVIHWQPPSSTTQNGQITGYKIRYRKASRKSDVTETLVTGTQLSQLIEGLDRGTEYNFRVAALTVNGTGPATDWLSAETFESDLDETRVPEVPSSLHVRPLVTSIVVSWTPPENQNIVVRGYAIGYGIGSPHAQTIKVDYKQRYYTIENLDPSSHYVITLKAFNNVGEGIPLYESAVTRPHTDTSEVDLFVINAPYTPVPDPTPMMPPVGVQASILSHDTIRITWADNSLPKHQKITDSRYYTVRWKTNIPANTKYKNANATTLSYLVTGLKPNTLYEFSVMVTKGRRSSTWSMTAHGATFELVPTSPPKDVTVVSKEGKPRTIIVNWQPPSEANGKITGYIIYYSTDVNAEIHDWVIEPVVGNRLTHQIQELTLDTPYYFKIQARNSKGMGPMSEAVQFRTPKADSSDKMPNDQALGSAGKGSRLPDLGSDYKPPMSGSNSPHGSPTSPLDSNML
UniProt P70211, residues 26-1097: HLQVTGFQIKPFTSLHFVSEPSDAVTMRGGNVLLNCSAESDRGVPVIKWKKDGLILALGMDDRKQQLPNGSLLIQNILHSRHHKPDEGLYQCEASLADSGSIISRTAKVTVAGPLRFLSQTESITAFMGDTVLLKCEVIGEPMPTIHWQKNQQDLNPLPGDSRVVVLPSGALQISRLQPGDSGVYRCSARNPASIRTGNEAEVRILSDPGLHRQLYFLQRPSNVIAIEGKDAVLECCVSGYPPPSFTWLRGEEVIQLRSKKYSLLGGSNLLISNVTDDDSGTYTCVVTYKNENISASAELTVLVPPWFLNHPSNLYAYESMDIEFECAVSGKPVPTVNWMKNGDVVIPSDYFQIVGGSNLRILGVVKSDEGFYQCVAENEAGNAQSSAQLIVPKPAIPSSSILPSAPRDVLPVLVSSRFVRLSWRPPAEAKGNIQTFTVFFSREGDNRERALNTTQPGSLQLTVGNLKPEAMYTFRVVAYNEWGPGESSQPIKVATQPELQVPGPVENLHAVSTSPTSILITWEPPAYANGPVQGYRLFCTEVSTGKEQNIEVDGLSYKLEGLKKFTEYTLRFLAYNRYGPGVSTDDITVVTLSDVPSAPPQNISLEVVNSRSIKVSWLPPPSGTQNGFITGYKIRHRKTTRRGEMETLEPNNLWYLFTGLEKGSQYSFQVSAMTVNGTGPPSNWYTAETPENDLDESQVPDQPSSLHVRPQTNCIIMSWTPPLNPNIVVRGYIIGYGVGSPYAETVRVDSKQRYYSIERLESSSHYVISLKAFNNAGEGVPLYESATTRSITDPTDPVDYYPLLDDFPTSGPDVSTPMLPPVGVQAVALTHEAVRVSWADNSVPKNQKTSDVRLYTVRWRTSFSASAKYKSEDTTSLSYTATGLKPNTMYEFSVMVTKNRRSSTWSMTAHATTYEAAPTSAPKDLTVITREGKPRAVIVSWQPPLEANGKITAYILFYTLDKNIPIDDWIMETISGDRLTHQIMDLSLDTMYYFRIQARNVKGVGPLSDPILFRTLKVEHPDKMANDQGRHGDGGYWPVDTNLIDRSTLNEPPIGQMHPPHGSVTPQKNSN

No constants are given. Whether binding was seen depends on the method and setting.

The experiment has as its target T1, mWFIKKN2 (biotinylated, SPR ligand) (mouse) (UniProt Q7TQN3).
T1 sequence (chain, N-terminally biotinylated using Sulfo-NHS-SS-Biotin): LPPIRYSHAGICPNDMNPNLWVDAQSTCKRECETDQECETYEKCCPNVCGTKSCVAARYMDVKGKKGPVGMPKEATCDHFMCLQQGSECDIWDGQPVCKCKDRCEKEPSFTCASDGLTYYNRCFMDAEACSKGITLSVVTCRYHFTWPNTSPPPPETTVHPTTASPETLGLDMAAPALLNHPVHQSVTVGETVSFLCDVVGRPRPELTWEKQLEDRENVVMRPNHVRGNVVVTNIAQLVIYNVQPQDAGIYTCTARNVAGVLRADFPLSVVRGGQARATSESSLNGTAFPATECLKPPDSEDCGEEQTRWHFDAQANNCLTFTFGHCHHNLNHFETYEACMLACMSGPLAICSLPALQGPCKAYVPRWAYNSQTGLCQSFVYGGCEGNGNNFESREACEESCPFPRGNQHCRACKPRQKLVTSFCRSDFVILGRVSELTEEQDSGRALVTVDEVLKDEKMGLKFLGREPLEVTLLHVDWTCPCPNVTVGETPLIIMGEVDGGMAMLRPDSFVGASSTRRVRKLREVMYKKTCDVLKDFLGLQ
Put plainly: SPR. (In SPR one partner is held on a chip, and binding of the other changes the refractive index at the surface.)

As to “mNeo1 ECD (SPR analyte) (from UniProt P97798 37-1136) (domain or fragment)”, the binding result is “no binding”.

For “mDCC ECD (SPR analyte) (from UniProt P70211 26-1097) (domain or fragment)”, the binding entry is on record as “no binding”.
